Reference: patent publication US11793790B2, “Compositions against Candida infections” (Katholieke Universiteit Leuven, priority 2017, dated 2023)
Some of these results come from one statement about several compounds together.

Test system: C. albicans biofilms
Assay: Biofilm checkerboard assay (CTB metabolic activity, BEC-2, FICI)
Details: quaternary ammonium compound combined with Miconazole

Compound | FICI with Miconazole
Cc1cc(N)c2ccccc2[n+]1CCCCCCCCCC[n+]1c(C)cc(N)c2ccccc21 [dequalinium chloride] | < 0.5
benzalkonium chloride | < 0.5
